Experimental data published in the supplement of paper PMC10849652.
The other results are listed elsewhere or left out. Residues, ends and D or L forms follow the SMILES beside them. *: point of attachment. Cbz = O=C(OCc1ccccc1)*

Sequences of proteins named here, by UniProt entry; tags and fusion partners are left off. A change or cut given only in a name is not applied to a line headed by its entry.
UniProt Q969X5: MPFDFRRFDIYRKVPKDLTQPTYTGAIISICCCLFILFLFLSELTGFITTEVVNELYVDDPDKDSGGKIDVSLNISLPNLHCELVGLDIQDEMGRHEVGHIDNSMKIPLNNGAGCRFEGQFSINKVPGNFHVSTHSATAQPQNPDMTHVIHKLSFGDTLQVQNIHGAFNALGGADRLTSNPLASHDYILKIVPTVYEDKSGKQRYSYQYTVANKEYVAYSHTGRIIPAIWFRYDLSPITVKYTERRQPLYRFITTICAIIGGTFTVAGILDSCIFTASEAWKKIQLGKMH
UniProt Q8IUD2: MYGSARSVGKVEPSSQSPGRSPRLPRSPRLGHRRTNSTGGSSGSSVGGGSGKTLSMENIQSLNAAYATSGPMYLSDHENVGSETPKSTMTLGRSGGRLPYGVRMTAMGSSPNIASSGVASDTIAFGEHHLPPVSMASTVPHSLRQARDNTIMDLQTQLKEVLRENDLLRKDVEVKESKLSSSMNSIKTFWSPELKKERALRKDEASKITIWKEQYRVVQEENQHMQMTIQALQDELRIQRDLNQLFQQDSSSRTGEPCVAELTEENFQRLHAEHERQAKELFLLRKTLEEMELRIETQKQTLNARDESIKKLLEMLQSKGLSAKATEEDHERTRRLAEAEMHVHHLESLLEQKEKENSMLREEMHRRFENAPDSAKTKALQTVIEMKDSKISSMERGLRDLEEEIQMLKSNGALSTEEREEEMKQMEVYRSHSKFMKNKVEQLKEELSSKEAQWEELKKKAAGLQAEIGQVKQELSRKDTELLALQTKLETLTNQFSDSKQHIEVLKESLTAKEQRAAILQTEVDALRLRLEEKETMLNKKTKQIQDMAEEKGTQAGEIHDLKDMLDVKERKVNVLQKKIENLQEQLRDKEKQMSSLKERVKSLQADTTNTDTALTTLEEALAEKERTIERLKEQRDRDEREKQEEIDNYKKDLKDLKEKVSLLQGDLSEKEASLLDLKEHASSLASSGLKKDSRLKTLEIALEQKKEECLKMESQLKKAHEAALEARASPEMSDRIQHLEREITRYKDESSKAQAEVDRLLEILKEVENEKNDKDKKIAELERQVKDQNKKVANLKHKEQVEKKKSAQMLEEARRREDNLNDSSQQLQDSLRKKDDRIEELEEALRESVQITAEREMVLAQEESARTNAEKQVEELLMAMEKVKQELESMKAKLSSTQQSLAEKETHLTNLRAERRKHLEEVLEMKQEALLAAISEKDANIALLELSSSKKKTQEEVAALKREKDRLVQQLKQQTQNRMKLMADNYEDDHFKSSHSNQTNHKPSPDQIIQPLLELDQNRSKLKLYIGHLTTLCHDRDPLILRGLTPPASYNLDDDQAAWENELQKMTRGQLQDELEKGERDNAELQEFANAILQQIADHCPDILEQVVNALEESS
UniProt Q7Z309: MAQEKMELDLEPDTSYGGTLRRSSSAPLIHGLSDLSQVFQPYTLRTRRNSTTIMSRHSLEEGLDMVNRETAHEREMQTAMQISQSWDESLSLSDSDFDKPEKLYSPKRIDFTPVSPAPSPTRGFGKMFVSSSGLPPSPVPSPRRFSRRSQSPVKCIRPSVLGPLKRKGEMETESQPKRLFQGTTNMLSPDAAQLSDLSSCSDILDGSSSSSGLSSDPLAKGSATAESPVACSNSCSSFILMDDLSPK
UniProt O95208: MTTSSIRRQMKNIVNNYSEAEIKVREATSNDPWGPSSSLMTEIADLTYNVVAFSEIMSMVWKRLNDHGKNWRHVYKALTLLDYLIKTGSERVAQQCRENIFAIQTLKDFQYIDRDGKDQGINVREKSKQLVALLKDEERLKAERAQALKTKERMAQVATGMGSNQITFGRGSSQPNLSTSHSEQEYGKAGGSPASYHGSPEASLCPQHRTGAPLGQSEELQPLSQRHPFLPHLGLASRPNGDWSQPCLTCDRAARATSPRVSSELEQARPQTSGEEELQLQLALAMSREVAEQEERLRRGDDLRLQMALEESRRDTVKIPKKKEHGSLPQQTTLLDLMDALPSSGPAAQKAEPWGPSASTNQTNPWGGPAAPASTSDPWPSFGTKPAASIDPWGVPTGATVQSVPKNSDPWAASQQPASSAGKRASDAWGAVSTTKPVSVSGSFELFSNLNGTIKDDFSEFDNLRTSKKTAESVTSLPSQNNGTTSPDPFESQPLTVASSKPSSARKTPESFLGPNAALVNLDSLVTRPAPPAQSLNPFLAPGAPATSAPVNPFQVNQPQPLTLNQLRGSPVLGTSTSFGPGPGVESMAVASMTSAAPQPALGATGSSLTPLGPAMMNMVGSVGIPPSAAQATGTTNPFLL
UniProt Q01844: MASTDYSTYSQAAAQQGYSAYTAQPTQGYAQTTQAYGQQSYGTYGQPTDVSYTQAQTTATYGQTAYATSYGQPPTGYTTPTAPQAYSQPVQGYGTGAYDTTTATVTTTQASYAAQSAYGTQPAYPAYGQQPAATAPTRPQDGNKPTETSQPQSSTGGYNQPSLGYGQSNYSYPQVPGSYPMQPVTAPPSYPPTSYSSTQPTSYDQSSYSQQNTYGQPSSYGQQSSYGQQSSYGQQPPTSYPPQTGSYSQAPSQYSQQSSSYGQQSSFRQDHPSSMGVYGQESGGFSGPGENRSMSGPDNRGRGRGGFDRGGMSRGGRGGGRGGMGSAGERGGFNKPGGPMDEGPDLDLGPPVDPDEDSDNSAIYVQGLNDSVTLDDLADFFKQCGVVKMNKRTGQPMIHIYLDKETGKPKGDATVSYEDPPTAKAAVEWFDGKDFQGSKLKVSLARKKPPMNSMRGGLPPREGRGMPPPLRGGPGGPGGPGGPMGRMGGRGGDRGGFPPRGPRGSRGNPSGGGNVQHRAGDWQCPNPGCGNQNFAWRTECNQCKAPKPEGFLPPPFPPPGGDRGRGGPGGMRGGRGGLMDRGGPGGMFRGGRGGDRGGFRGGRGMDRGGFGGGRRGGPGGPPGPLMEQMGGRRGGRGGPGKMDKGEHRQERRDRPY
UniProt O95571: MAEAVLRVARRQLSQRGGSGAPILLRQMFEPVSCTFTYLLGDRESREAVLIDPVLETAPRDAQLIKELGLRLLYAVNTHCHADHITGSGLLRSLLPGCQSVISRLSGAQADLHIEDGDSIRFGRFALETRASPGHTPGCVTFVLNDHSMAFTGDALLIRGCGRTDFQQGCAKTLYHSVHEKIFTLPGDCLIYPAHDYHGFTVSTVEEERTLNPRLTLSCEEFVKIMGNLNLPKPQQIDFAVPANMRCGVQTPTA
UniProt P10768: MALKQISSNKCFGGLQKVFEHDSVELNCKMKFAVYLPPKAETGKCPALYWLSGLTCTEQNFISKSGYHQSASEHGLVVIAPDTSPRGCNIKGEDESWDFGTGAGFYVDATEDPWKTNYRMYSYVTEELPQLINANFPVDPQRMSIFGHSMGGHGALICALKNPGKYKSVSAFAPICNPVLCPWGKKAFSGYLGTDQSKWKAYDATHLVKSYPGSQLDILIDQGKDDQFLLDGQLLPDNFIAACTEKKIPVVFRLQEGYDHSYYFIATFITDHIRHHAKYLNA
UniProt O43414: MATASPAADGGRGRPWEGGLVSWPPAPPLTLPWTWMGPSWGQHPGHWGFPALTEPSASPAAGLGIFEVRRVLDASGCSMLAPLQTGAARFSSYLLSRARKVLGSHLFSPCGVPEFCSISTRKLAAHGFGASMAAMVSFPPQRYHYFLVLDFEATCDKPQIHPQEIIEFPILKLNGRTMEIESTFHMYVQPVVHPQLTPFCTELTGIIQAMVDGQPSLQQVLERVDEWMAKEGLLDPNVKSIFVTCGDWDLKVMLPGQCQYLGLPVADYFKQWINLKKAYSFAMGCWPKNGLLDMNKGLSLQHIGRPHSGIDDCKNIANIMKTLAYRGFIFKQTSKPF
UniProt Q9UBC2: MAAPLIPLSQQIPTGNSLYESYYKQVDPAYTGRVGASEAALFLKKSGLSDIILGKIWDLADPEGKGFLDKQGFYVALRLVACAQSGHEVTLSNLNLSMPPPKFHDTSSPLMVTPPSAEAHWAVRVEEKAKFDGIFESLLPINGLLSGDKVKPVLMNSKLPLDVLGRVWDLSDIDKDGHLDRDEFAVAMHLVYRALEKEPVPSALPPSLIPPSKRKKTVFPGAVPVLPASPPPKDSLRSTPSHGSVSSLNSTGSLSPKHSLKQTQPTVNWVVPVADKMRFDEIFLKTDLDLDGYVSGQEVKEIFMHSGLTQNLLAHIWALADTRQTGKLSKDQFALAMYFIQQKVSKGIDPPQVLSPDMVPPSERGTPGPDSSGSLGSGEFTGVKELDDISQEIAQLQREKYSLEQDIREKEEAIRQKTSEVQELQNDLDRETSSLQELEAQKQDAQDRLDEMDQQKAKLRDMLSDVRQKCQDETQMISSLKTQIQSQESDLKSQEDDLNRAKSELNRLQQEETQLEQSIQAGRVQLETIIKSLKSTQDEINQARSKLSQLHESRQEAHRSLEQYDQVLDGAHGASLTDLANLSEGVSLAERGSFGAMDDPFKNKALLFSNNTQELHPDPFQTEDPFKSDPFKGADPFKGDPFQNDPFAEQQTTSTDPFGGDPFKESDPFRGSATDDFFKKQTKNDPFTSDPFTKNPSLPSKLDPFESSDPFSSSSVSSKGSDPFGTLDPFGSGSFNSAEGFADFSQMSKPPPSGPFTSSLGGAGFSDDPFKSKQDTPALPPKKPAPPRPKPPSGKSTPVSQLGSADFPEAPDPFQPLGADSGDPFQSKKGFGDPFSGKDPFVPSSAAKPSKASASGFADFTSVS
UniProt Q5BKY9: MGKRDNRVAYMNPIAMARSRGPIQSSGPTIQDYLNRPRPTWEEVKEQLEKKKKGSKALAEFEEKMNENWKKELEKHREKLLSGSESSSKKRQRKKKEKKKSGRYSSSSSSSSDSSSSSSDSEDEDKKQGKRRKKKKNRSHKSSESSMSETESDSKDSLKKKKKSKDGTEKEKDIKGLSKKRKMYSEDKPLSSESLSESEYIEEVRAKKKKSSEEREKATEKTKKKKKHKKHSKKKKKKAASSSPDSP
UniProt P07814: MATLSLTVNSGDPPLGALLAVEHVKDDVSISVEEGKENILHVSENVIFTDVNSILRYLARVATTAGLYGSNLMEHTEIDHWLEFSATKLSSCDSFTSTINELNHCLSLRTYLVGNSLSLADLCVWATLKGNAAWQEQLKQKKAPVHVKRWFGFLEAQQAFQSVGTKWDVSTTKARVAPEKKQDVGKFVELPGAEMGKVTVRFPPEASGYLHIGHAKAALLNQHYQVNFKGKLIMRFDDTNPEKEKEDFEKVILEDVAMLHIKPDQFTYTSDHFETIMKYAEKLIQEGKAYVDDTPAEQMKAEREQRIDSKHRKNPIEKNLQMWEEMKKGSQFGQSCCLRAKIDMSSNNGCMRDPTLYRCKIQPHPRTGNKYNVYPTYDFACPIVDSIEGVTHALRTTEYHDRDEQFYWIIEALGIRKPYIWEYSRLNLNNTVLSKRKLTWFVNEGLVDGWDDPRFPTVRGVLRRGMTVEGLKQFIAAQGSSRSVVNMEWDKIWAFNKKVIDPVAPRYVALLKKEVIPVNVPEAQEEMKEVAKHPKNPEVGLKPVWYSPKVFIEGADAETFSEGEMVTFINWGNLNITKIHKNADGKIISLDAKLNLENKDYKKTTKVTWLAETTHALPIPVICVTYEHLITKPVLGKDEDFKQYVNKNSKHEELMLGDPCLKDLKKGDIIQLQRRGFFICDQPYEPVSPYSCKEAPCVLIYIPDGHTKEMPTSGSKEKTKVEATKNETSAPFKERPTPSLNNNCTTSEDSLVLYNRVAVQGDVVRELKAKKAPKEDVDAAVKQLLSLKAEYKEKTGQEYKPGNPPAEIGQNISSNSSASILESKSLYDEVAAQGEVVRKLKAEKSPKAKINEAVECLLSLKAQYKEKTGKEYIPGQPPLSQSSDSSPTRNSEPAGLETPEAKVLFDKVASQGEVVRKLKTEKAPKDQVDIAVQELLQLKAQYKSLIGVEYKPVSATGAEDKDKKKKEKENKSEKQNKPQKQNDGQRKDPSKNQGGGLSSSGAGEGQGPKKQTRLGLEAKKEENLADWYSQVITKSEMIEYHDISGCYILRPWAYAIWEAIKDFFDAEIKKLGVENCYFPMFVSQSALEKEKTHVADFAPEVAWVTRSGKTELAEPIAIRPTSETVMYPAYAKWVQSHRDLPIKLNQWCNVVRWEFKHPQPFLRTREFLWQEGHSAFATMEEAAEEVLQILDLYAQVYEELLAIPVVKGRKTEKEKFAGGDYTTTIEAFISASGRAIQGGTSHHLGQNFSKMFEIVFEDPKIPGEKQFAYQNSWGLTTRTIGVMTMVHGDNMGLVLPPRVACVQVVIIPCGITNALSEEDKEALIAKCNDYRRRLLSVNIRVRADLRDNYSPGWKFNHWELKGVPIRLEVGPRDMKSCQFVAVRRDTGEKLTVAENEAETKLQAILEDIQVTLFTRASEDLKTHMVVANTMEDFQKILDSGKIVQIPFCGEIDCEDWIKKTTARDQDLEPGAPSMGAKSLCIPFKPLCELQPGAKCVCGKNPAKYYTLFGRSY

Key:
Assay in all cases: log2 fold change, soluble protein after heating vs DMSO (PISA); higher = thermal stabilisation; K562 cells, 10 uM, 30 min; active = over 0.2 and 3.5 SD of the protein, either way, in both replicates (recomputed)
erlotinib = compound: C#Cc1cccc(Nc2ncnc3cc(OCCOC)c(OCCOC)cc23)c1 [erlotinib]
Method in brief: (§1)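 Values are thermal stability changes relative to control samples and are taken from duplicates. They are stated as log2 fold changes. Before quantification by TMTpro 16plex LC-MS/MS with equalised channel sums, K562 cells at 2×10^6 cells/mL were treated with 10 μM compound for 30 min, heated in aliquots for 3 min across 48°C-58°C, pooled, extracted in PBS with 0.5% NP-40 at 4°C, and centrifuged at 21,000xg for 90 min to give the soluble supernatant.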

[1] = compound: C/C(=N\NC(=O)C1=CC(=CC=C1)S(=O)(=O)N2CCOCC2)/C3=C(C=CC(=C3)Cl)O
Method in brief: as §1

[2] = compound: C1=CC(=C(C=C1Cl)C2=NC3=NC=CN=C3C(=N2)NC4=CC=NC=C4)F
Method in brief: as §1

[3] = compound: C1=CC(=CC=C1C2=NC3=C(N2)C=C(C=C3)C(=O)N)OC4=CC=C(C=C4)Cl
Method in brief: as §1

[4] = compound: C1=CC2=C(C=CC(=C2)/C=C\3/C(=O)NC(=NCC4=CC=CS4)S3)N=C1
Method in brief: as §1

[5] = compound: C1=CC2=NC=CN=C2C=C1/C=C/3\C(=O)NC(=O)S3
Method in brief: as §1

[6] = compound: C1=CC=C(C=C1)C2=NC(=C(N2)C3=CC=NC=C3)C4=CC(=C(C=C4)Cl)O
Method in brief: as §1

[7] = compound: C1=CC=C2C(=C1)C3=NNC4=CC=CC(=C43)C2=O
Method in brief: as §1

[8] = compound: C1CCN(C1)C(=O)NC2=CC=CC(=C2)NC3=NC=C(C(=N3)NCCC4=CN=CN4)Br
Method in brief: as §1

[9] = compound: C1CN(CCC1(CC2=CC=C(C=C2)Cl)N)C3=NC=NC4=C3C=CN4
Method in brief: as §1

IRAK-1-4 Inhibitor I = compound: C1COCCN1CCN2C3=CC=CC=C3N=C2NC(=O)C4=CC(=CC=C4)[N+](=O)[O-] [IRAK-1-4 Inhibitor I]
Method in brief: as §1

ibrutinib = compound: C=CC(=O)N1CCC[C@@H](n2nc(-c3ccc(Oc4ccccc4)cc3)c3c(N)ncnc32)C1 [ibrutinib]
Method in brief: as §1

[10] = compound: CC(=O)c1cnc2ccc(-c3cc(Cl)c(O)c(Cl)c3)nc2c1N[C@H]1CC[C@H](CN(C)C)CC1
Method in brief: as §1

ralimetinib = compound: CC(C)(C)Cn1c(N)nc2ccc(-c3[nH]c(C(C)(C)C)nc3-c3ccc(F)cc3)nc21 [ralimetinib]
Method in brief: as §1

[11] = compound: CC(C)(O)CC(=O)NCCn1ccc2ncnc(Nc3ccc(Oc4cccc(C(F)(F)F)c4)c(Cl)c3)c21
Method in brief: as §1

[12] = compound: CC(C)C1=C2N=C(C=C(N2N=C1)NCC3=CC=CC=C3)NCCCCCCN
Method in brief: as §1

[13] = compound: CC(C)C[C@@H](C=O)NC(=O)[C@H](CC(C)C)NC(=O)[C@H](CC(C)C)NC(=O)OCc1ccccc1
Method in brief: as §1

pinometostat = compound: CC(C)N(C[C@H]1O[C@@H](n2cnc3c(N)ncnc32)[C@H](O)[C@@H]1O)[C@H]1C[C@@H](CCc2nc3cc(C(C)(C)C)ccc3[nH]2)C1 [pinometostat]
Method in brief: as §1

[14] = compound: CC1=C(C(CC(=O)N1)C2=CC=C(C=C2)C(F)(F)F)C(=O)NC3=C(C=C4C(=C3)C=NN4)F
Method in brief: as §1

[15] = compound: CC1=C(C2=C(C=C1)C(=O)C3=CC=CC=C3N2CCCN)C
Method in brief: as §1

Measured: log2 fold change

ERGIC1 (UniProt Q969X5)
inactive: erlotinib 0.029 | [1] 0.022 | [2] 0.012 | [3] -0.005 | [4] 0.049 | [5] 0.052 | [6] -0.008 | [7] -0.04 | [8] 0.015 | [9] 0.041 | IRAK-1-4 Inhibitor I 0.05 | ibrutinib 0.025 | [10] -0.011 | ralimetinib -0.023 | [11] -0.036 | [12] -0.033 | [13] 0.006 | pinometostat -0.018 | [14] -0.037 | [15] -0.043

ERC1 (UniProt Q8IUD2)
inactive: erlotinib 0.035 | [1] 0.07 | [2] 0.003 | [3] 0.03 | [4] 0.211 | [5] -0.064 | [6] 0.038 | [7] 0.003 | [8] -0.058 | [9] 0.063 | IRAK-1-4 Inhibitor I 0.032 | ibrutinib 0.117 | [10] -0.361 | ralimetinib 0.193 | [11] -0.116 | [12] -0.272 | [13] 0.03 | pinometostat 0.109 | [14] 0.024 | [15] 0.151

FAM120A isoform 6 (UniProt Q9NZB2)
inactive: erlotinib -0.152 | [1] -0.143 | [2] -0.236 | [3] 0.069 | [4] -0.065 | [5] 0.011 | [6] -0.068 | [7] -0.06 | [8] 0.102 | [9] -0.05 | IRAK-1-4 Inhibitor I -0.123 | ibrutinib 0.098 | [10] 0.115 | ralimetinib 0.072 | [11] 0.131 | [12] 0.046 | [13] 0.043 | pinometostat 0.094 | [14] -0.008 | [15] -0.301

EXOSC8 (UniProt Q96B26)
inactive: erlotinib -0.086 | [1] -0.023 | [2] -0.012 | [3] 0.019 | [4] -0.087 | [5] 0.001 | [6] 0.006 | [7] -0.016 | [8] 0.016 | [9] 0.026 | IRAK-1-4 Inhibitor I 0.014 | ibrutinib 0.027 | [10] 0.003 | ralimetinib -0.063 | [11] 0.009 | [12] 0.062 | [13] 0.04 | pinometostat 0.005 | [14] 0.028 | [15] -0.012

FAM122B isoform 3 (UniProt Q7Z309)
inactive: erlotinib 0.111 | [1] -0.074 | [2] -0.028 | [3] 0.017 | [4] -0.102 | [5] 0.003 | [6] 0.04 | [7] 0.035 | [8] -0.134 | [9] 0.071 | IRAK-1-4 Inhibitor I -0.002 | ibrutinib 0.076 | [10] -0.22 | ralimetinib 0.012 | [11] 0.278 | [12] 0.052 | [13] -0.034 | pinometostat 0.016 | [14] 0.05 | [15] -0.044

EPN2 (UniProt O95208)
inactive: erlotinib 0.016 | [1] 0.051 | [2] -0.006 | [3] -0.003 | [4] 0.076 | [5] -0.011 | [6] 0.082 | [7] -0.026 | [8] -0.028 | [9] -0.055 | IRAK-1-4 Inhibitor I 0.066 | ibrutinib 0.063 | [10] -0.05 | ralimetinib 0.097 | [11] 0.003 | [12] -0.042 | [13] -0.022 | pinometostat -0.029 | [14] -0.001 | [15] -0.052

FAHD2A (UniProt Q96GK7)
inactive: erlotinib 0.022 | [1] 0.024 | [2] 0.023 | [3] -0.034 | [4] 0.01 | [5] -0.002 | [6] 0.004 | [7] -0.034 | [8] -0.028 | [9] -0.03 | IRAK-1-4 Inhibitor I 0.034 | ibrutinib 0.016 | [10] 0 | ralimetinib -0.029 | [11] -0.012 | [12] 0.074 | [13] 0.007 | pinometostat -0.05 | [14] -0.018 | [15] 0.026

EWSR1 isoform 5 (UniProt Q01844)
inactive: erlotinib -0.026 | [1] -0.113 | [2] -0.056 | [3] 0.028 | [4] -0.059 | [5] 0.006 | [6] -0.032 | [7] -0.013 | [8] -0.017 | [9] 0.031 | IRAK-1-4 Inhibitor I -0.016 | ibrutinib 0.055 | [10] 0.023 | ralimetinib -0.004 | [11] 0.087 | [12] 0.015 | [13] 0.057 | pinometostat -0.014 | [14] -0.019 | [15] 0.18

ETHE1 (UniProt O95571)
inactive: erlotinib 0.038 | [1] -0.02 | [2] 0.048 | [3] 0.027 | [4] 0.025 | [5] 0.04 | [6] 0.023 | [7] -0.023 | [8] -0.003 | [9] 0.014 | IRAK-1-4 Inhibitor I 0.029 | ibrutinib 0.062 | [10] -0.009 | ralimetinib -0.006 | [11] -0.008 | [12] -0.003 | [13] -0.035 | pinometostat -0.027 | [14] 0.131 | [15] -0.027

ESD (UniProt P10768)
inactive: erlotinib -0.02 | [1] -0.027 | [2] 0.011 | [3] 0.011 | [4] -0.02 | [5] 0.008 | [6] -0.026 | [7] -0.033 | [8] -0.008 | [9] 0.012 | IRAK-1-4 Inhibitor I 0.021 | ibrutinib 0.037 | [10] 0.017 | ralimetinib -0.044 | [11] 0 | [12] 0.062 | [13] -0.021 | pinometostat -0.051 | [14] 0.024 | [15] 0.129

ERI3 (UniProt O43414)
inactive: erlotinib 0.038 | [1] 0.05 | [2] 0.074 | [3] 0.035 | [4] 0.029 | [5] 0.028 | [6] 0.016 | [7] -0.04 | [8] 0.028 | [9] -0.028 | IRAK-1-4 Inhibitor I 0.03 | ibrutinib 0.002 | [10] -0.042 | ralimetinib -0.06 | [11] -0.05 | [12] -0.007 | [13] -0.013 | pinometostat -0.011 | [14] -0.002 | [15] 0.03

EPS15L1 isoform 2 (UniProt Q9UBC2)
inactive: erlotinib 0.007 | [1] 0.034 | [2] 0.031 | [3] -0.016 | [4] -0.011 | [5] 0.029 | [6] -0.026 | [7] -0.008 | [8] 0.034 | [9] -0.158 | IRAK-1-4 Inhibitor I -0.002 | ibrutinib -0.024 | [10] 0.034 | ralimetinib 0.002 | [11] -0.1 | [12] -0.144 | [13] 0.024 | pinometostat -0.021 | [14] -0.029 | [15] -0.146

EPB41L2 (UniProt O43491)
inactive: erlotinib -0.015 | [1] 0.034 | [2] 0.022 | [3] 0.03 | [4] 0.007 | [5] -0.007 | [6] 0.015 | [7] -0.088 | [8] -0.09 | [9] 0.042 | IRAK-1-4 Inhibitor I 0.022 | ibrutinib 0.011 | [10] -0.15 | ralimetinib 0.001 | [11] -0.024 | [12] 0.052 | [13] -0.001 | pinometostat -0.005 | [14] -0.03 | [15] 0.086

FAM133B (UniProt Q5BKY9)
inactive: erlotinib -0.009 | [1] -0.004 | [2] 0.005 | [3] 0.051 | [4] -0.062 | [5] -0.013 | [6] -0.036 | [7] 0 | [8] 0.021 | [9] -0.074 | IRAK-1-4 Inhibitor I 0.013 | ibrutinib 0.016 | [10] -0.084 | ralimetinib -0.059 | [11] -0.021 | [12] -0.01 | [13] 0.1 | pinometostat -0.028 | [14] 0.067 | [15] -0.017

2 neighbouring entries out of the list so far, quoted:
EPB41L2 (UniProt O43491)
inactive: erlotinib -0.015 | [1] 0.034 | [2] 0.022 | [3] 0.03 | [4] 0.007 | [5] -0.007 | [6] 0.015 | [7] -0.088 | [8] -0.09 | [9] 0.042 | IRAK-1-4 Inhibitor I 0.022 | ibrutinib 0.011 | [10] -0.15 | ralimetinib 0.001 | [11] -0.024 | [12] 0.052 | [13] -0.001 | pinometostat -0.005 | [14] -0.03 | [15] 0.086

FAM133B (UniProt Q5BKY9)
inactive: erlotinib -0.009 | [1] -0.004 | [2] 0.005 | [3] 0.051 | [4] -0.062 | [5] -0.013 | [6] -0.036 | [7] 0 | [8] 0.021 | [9] -0.074 | IRAK-1-4 Inhibitor I 0.013 | ibrutinib 0.016 | [10] -0.084 | ralimetinib -0.059 | [11] -0.021 | [12] -0.01 | [13] 0.1 | pinometostat -0.028 | [14] 0.067 | [15] -0.017

Continued.

EPN1 (UniProt Q9Y6I3)
inactive: erlotinib 0.02 | [1] 0.065 | [2] 0.066 | [3] 0.004 | [4] 0.029 | [5] 0.049 | [6] 0.021 | [7] -0.014 | [8] -0.023 | [9] 0.046 | IRAK-1-4 Inhibitor I 0.04 | ibrutinib 0.01 | [10] -0.043 | ralimetinib 0.01 | [11] -0.044 | [12] -0.042 | [13] 0.025 | pinometostat 0.001 | [14] -0.026 | [15] -0.009

EPRS (UniProt P07814)
inactive: erlotinib -0.016 | [1] -0.05 | [2] -0.36 | [3] -0.006 | [4] -0.009 | [5] 0.001 | [6] -0.048 | [7] 0 | [8] 0.036 | [9] -0.201 | IRAK-1-4 Inhibitor I -0.118 | ibrutinib 0.006 | [10] 0.202 | ralimetinib 0.187 | [11] 0.032 | [12] -0.168 | [13] 0.137 | pinometostat 0.458 | [14] 0.05 | [15] -0.052
